{
  "sequences": {"note": "Chains of the proteins cited; added tags and fusions are not shown.", "UniProt P32245, whole entry, species assumed": "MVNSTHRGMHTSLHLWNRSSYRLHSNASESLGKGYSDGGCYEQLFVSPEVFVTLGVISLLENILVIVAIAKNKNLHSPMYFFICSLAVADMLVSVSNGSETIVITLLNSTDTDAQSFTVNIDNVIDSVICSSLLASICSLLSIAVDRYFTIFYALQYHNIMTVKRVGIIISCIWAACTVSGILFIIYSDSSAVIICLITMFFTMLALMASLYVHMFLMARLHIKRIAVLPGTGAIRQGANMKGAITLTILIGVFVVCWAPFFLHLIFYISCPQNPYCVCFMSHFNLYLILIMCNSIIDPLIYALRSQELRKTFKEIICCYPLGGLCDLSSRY"},
  "source": "patent US20030195187A1",
  "about": "“Guanidino compounds” (CHIRON CORPORATION, priority 2002, published 2003)",
  "note": "Some of these results come from one statement about several compounds together.",
  "data": [
    {"target": "MC4-R (Homo sapiens, UniProt P32245)", "assay": "cAMP Scintillation Proximity Assay in cells expressing MC4-R", "format": "cell-based", "conditions": "intercellular cAMP measured by SPA kit", "values": [
      {"smiles": "COc1ccc2c(c1)C(c1ccc(NC(=N[C@@H]3C[C@H]4C[C@@H]([C@@H]3C)C4(C)C)N3CCN[C@@H](C)C3)nc1)=NCC2", "note": "[Example 37, (3S)-3-methyl-N-{5-[7-(methyloxy)-3,4-dihydroisoquinolin-1-yl]pyridin-2-yl}-N′-[(1S,2S,3R,5R)-2,6,6-trimethylbicyclo[3.1.1]hept-3-yl]piperazine-1-carboximidamide]", "−log EC50": "above 3"},
      {"smiles": "CCOc1ccc2c(c1)C(c1ccc(NC(=N[C@@H]3C[C@H]4C[C@@H]([C@@H]3C)C4(C)C)N3CCN[C@@H](C)C3)nc1)=NCC2", "note": "[Example 38, (3S)-N-{5-[7-(ethyloxy)-3,4-dihydroisoquinolin-1-yl]pyridin-2-yl}-3-methyl-N′-[(1S,2S,3R,5R)-2,6,6-trimethylbicyclo[3.1.1]hept-3-yl]piperazine-1-carboximidamide]", "−log EC50": "above 3"},
      {"smiles": "CCCCOc1ccc2c(c1)C(c1ccc(NC(=N[C@H]3C[C@H]4C[C@@H]([C@@H]3C)C4(C)C)N3CCN[C@@H](C)C3)cc1)=NCC2", "note": "[Example 39, (3S)-N-{4-[7-(butyloxy)-3,4-dihydroisoquinolin-1-yl]phenyl}-3-methyl-N′-[(1S,2S,3S,5R)-2,6,6-trimethylbicyclo[3.1.1]hept-3-yl]piperazine-1-carboximidamide]", "−log EC50": "above 3"},
      {"smiles": "CCCCOc1ccc2c(c1)C(c1ccc(NC(=N[C@H]3C[C@H]4C[C@@H]([C@@H]3C)C4(C)C)N3C[C@@H](C)N[C@@H](C)C3)cc1)=NCC2", "note": "[Example 40, (3R,5S)-N-{4-[7-(butyloxy)-3,4-dihydroisoquinolin-1-yl]phenyl}-3,5-dimethyl-N′-[(1S,2S,3S,5R)-2,6,6-trimethylbicyclo[3.1.1]hept-3-yl]piperazine-1-carboximidamide]", "−log EC50": "above 3"},
      {"smiles": "CCOc1ccc2c(c1)C(c1ccc(NC(=N[C@@H]3C[C@H]4C[C@@H]([C@@H]3C)C4(C)C)N3C[C@@H](C)N[C@@H](C)C3)nc1)=NCC2", "note": "[Example 42, (3R,5S)-N-{5-[7-(ethyloxy)-3,4-dihydroisoquinolin-1-yl]pyridin-2-yl}-3,5-dimethyl-N′-[(1S,2S,3R,5R)-2,6,6-trimethylbicyclo[3.1.1]hept-3-yl]piperazine-1-carboximidamide]", "−log EC50": "above 3"},
      {"smiles": "CC(C)c1ccc2c(c1)C(c1ccc(NC(=N[C@@H]3C[C@H]4C[C@@H]([C@@H]3C)C4(C)C)N3C[C@@H](C)N[C@@H](C)C3)nc1)=NCC2", "note": "[Example 43, (3R,5S)-3,5-dimethyl-N-{5-[7-(1-methylethyl)-3,4-dihydroisoquinolin-1-yl]pyridin-2-yl}-N′-[(1S,2S,3R,5R)-2,6,6-trimethylbicyclo[3.1.1]hept-3-yl]piperazine-1-carboximidamide]", "−log EC50": "above 3"},
      {"smiles": "C[C@@H]1[C@H](N=C(Nc2ccc(C3=NCCc4ccc(C(C)(C)C)cc43)cn2)N2CCN[C@@H](C)C2)C[C@H]2C[C@@H]1C2(C)C", "note": "[Example 44, (3S)-N-{5-[7-(1,1-dimethylethyl)-3,4-dihydroisoquinolin-1-yl]pyridin-2-yl}-3-methyl-N′-[(1S,2S,3R,5R)-2,6,6-trimethylbicyclo[3.1.1]hept-3-yl]piperazine-1-carboximidamide]", "−log EC50": "above 3"},
      {"smiles": "CCOc1ccc2c(c1)C(c1ccc(NC(=N[C@H]3C[C@H]4C[C@@H]([C@@H]3C)C4(C)C)N3C[C@H](C)N[C@@H](C)C3)nc1)=NCC2", "note": "[Example 45, (3S,5S)-N-{5-[7-(ethyloxy)-3,4-dihydroisoquinolin-1-yl]pyridin-2-yl}-3,5-dimethyl-N′-[(1S,2S,3S,5R)-2,6,6-trimethylbicyclo[3.1.1]hept-3-yl]piperazine-1-carboximidamide]", "−log EC50": "above 3"},
      {"smiles": "C[C@@H]1[C@@H](/N=C(/Nc2ccc(C(=O)OCCc3ccc(Cl)cc3Cl)cc2)N2CCN[C@@H](C)C2)C[C@H]2C[C@@H]1C2(C)C", "note": "[Example 46, 2-(2,4-dichlorophenyl)ethyl 4-[((Z)-[(3S)-3-methylpiperazin-1-yl]{[(1S,2S,3S,5R)-2,6,6-trimethylbicyclo[3.1.1]hept-3-yl]imino}methyl)amino]benzoate]", "−log EC50": "above 3"},
      {"smiles": "C[C@@H]1[C@@H](/N=C(/Nc2ccc(C(=O)OCCc3ccc(Cl)cc3Cl)cc2)N2C[C@@H](C)N[C@@H](C)C2)C[C@H]2C[C@@H]1C2(C)C", "note": "[Example 47, 2-(2,4-dichlorophenyl)ethyl 4-[((Z)-[(3R,5S)-3,5-dimethylpiperazin-1-yl]{[(1S,2S,3S,5R)-2,6,6-trimethylbicyclo[3.1.1]hept-3-yl]imino}methyl)amino]benzoate]", "−log EC50": "above 3"},
      {"smiles": "CC1CN(C(=NC2CCC(C(F)(F)F)CC2)Nc2ccc(C(=O)OCCc3ccc(Cl)cc3Cl)cc2)CCN1", "note": "[Example 48, 2-(2,4-dichlorophenyl)ethyl 4-[((Z)-[(3S)-3-methylpiperazin-1-yl]{[4-(trifluoromethyl)cyclohexyl]imino}methyl)amino]ben-zoate]", "−log EC50": "above 3"},
      {"smiles": "CC1CN(C(=NC2CC3CC(C2C)C3(C)C)Nc2ccc(C(=O)O)cc2)CC(C)N1", "note": "[Example 49, 4-[((Z)-[(3R,5S)-3,5-dimethylipierazin-1-yl]{[(1S,2S,3S,5R)-2,6,6-trimethylbicyclo[3.1.1]hept-3-yl]imino}methyl)amino]benzoic acid]", "−log EC50": "above 3"},
      {"smiles": "C[C@@H]1[C@@H](/N=C(\\Nc2ccc(NC(=O)[C@H](N)Cc3ccc(Cl)cc3)cc2)N2CCN[C@@H](C)C2)C[C@H]2C[C@@H]1C2(C)C", "note": "[Example 50, 4-chloro-N-{4-[((E)-[(3S)-3-methylpiperazin-1-yl]{[(1S,2S,3S,5R)-2,6,6-trimethylbicyclo[3.1.1]hept-3-yl]imino}methyl)amino]phenyl}-D-phenylalaninamide]", "−log EC50": "above 3"},
      {"smiles": "CCOC(=O)c1ccc(N/C(=N/[C@H]2C[C@H]3C[C@@H]([C@@H]2C)C3(C)C)N2C[C@@H](C)N[C@@H](C)C2)cc1", "note": "[Example 51, ethyl 4-[((Z)-[(3R,5S)-3,5-dimethylpiperazin-1-yl]{[(1S,2S,3S,5R)-2,6,6-trimethylbicyclo[3.1.1]hept-3-yl]imino}methyl)amino]benzoate]", "−log EC50": "above 3"},
      {"smiles": "COc1ccc(CCC(=O)Nc2ccc(NC(=NC3CC4CC(C3C)C4(C)C)N3CCNC(C)C3)cc2)c(F)c1", "note": "[Example 52, 3-[2-fluoro-4-(methyloxy)phenyl]-N-{4-[((Z)-[(3S)-3-methylpiperazin-1-yl]{[(1Sm2Sm3Sm5R)-2,6,6-trimethylbicyclo[3.1.1]hept-3-yl]imino}methyl)amino]phenyl}propanamide]", "−log EC50": "above 3"},
      {"smiles": "Cc1ccc(CCC(=O)Nc2ccc(N/C(=N/[C@H]3C[C@H]4C[C@@H]([C@@H]3C)C4(C)C)N3CCN[C@@H](C)C3)cc2)c(C)c1", "note": "[Example 53, 3-(2,4-dimethylphenyl)-N-{4-[((Z)-[(3S)-3-methylpiperazin-1-yl]{[(1S,2S,3S,5R)-2,6,6-trimethylbicyclo[3.1.1]hept-3-yl]imino}methyl)amino]phenyl}propanamide]", "−log EC50": "above 3"},
      {"smiles": "Cc1ccc(CCC(=O)Nc2ccc(N/C(=N/[C@H]3C[C@H]4C[C@@H]([C@@H]3C)C4(C)C)N3CCN[C@@H](C)C3)cc2)c(F)c1", "note": "[Example 54, 3-(2-fluoro-4-methylphenyl)-N-{4-[((Z)-[(3S)-3-methylpiperazin-1-yl]{[(1S,2S,3S,5R)-2,6,6-trimethylbicyclo[3.1.1]hept-3-yl]imino}methyl)amino]phenyl}propanamide]", "−log EC50": "above 3"},
      {"smiles": "C[C@@H]1[C@@H](/N=C(/Nc2ccc(NC(=O)[C@@H](N)Cc3ccc(Cl)cc3Cl)cc2)N2CCN[C@@H](C)C2)C[C@H]2C[C@@H]1C2(C)C", "note": "[Example 55, 2,4-dichloro-N-{4-[((Z)-[(3S)-3-methylpiperazin-1-yl]{[(1S,2S,3S,5R)-2,6,6-trimethylbicyclo[3.1.1]hept-3-yl]imino}methyl)amino]phenyl}-L-phenylalaninamide]", "−log EC50": "above 3"},
      {"smiles": "C[C@@H]1[C@@H](/N=C(/Nc2ccc(NC(=O)[C@H](N)Cc3ccc(Cl)cc3Cl)cc2)N2CCN[C@@H](C)C2)C[C@H]2C[C@@H]1C2(C)C", "note": "[Example 56, 2,4-dichloro-N-{4-[((Z)-[(3S)-3-methylpiperazin-1-yl]{[(1S,2S,3S,5R)-2,6,6-trimethylbicyclo[3.1.1]hept-3-yl]imino}methyl)amino]phenyl}-D-phenylalaninamide]", "−log EC50": "above 3"},
      {"smiles": "CC1CN(C(=NC2CC3CC(C2C)C3(C)C)Nc2ccc(NC(=O)C(N)Cc3ccc(Cl)cc3Cl)cc2)CC(C)N1", "note": "[Example 57, 2,4-dichloro-N-{4-[((Z)-[(3R,5S)-3,5-dimethylpiperazin-1-yl]{](1S,2S,3S,5R)-2,6,6-trimethylbicyclo[3.1.1]hept-3-yl]imino}methyl)amino]phenyl}-D-phenylalaninamide]", "−log EC50": "above 3"},
      {"smiles": "COc1ccc(CCC(=O)Nc2ccc(N/C(=N/[C@H]3C[C@H]4C[C@@H]([C@@H]3C)C4(C)C)N3C[C@@H](C)N[C@@H](C)C3)cc2)cc1", "note": "[Example 58, N-{4-[((Z)-[(3R,5S)-3,5-dimethylpiperazin-1-yl]{[(1S,2S,3S,5R)-2,6,6-trimethylbicyclo[3.1.1]hept-3-yl]imino}methyl)amino]phenyl}-3-[4-(methyloxy)phenyl]propanamide]", "−log EC50": "above 3"},
      {"smiles": "COc1ccc(CCC(=O)Nc2ccc(NC(=NC3CC4CC(C3C)C4(C)C)N3CC(C)NC(C)C3)cc2)c(F)c1", "note": "[Example 59, N-{4-[((Z)-[(3R,5S)-3,5-dimethylpiperazin-1-yl]{[(1S,2S,3S,5R)-2,6,6-trimethylbicyclo[3.1.1]hept-3-yl]imino}methyl)amino]phenyl}-3-[2-fluoro-4-(methyloxy)propaninamide]", "−log EC50": "above 3"},
      {"smiles": "Cc1ccc(CCC(=O)Nc2ccc(N/C(=N/[C@H]3C[C@H]4C[C@@H]([C@@H]3C)C4(C)C)N3C[C@@H](C)N[C@@H](C)C3)cc2)c(F)c1", "note": "[Example 60, N-{4-[((Z)-[(3R,5S)-3,5-dimethylpiperazin-1-yl]{[(1S,2S,3S,5R)-2,6,6-trimethylbicyclo[3.1.1]hept-3-yl]imino}methyl)amino]phenyl}-3-(2-fluoro-4-methylphenyl)propanamide]", "−log EC50": "above 3"},
      {"smiles": "COc1ccc(CCC(=O)Nc2ccc(N/C(=N/[C@H]3C[C@H]4C[C@@H]([C@@H]3C)C4(C)C)N3C[C@@H](C)N[C@@H](C)C3)cc2)c(OC)c1", "note": "[Example 61, 3-[2,4-bis(methyloxy)phenyl]-N-{4-[((Z)-[(3R,5S)-3,5-dimethylpiperazin-1-yl]{[(1S,2S,3S,5R)-2,6,6-trimethylbicyclo[3.1.1]hept-3-yl]imino}methyl)amino]phenyl}propanamide]", "−log EC50": "above 3"}
    ]}
  ]
}
